Measurements reported in PubChem BioAssay AID652243 (Drosophila RNAi Screening Center, 2013)

Test: 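Fly genes required for human androgen receptor driven transcription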 (primary screen)
Cell system: Drosophila S2R+ cells
Knock-down reagent: long dsRNA against Drosophila genes
Duration: 72 h (48 h, then 24 h hormone)
Treatment: synthetic androgen R1881 at 10 nM for 24 h
Read-out: 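Firefly light from an androgen-responsive reporter and Renilla control light per well, raw and unnormalised, for each of two replicates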
Scale: firefly reporter light: higher = more light from androgen-responsive reporter; Renilla control light: higher = more constitutive control signal (cell number, transfection)
Active means: 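Hit when the log firefly-to-Renilla ratio dropped or increased by a fixed fold versus the mean of GFP or LacZ controls across duplicate plates; lowering cut given as 1.5 and as 3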
Meaning of the calls: active = hit: reporter lowered or raised; inactive = no hit
In all, the deposit lists about 24,000 reagents; this is a random part of those with a known target gene and a result. In the full data, 246 (1%) got an active call. 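Plates not normalised; calls are printed but the firefly/Renilla ratio behind them is not deposited; fold cut for lowering reported inconsistently.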 Raw values vary from plate to plate and are shown uncorrected. The record does not give: the amount of reagent.

For Scm [DRSC16853], the entry reads firefly reporter light, replicate 1 = 1.92e5; firefly reporter light, replicate 2 = 2.02e5; Renilla control light, replicate 1 = 3.22e6; Renilla control light, replicate 2 = 3.53e6; inactive. With knock-down of Myo95E [DRSC15821], the screen gave firefly reporter light, replicate 1 = 1.34e5; firefly reporter light, replicate 2 = 1.08e5; Renilla control light, replicate 1 = 6.09e5; Renilla control light, replicate 2 = 6.10e5; inactive. After knock-down of Nagk [DRSC15994], the record shows firefly reporter light, replicate 1 = 43810; firefly reporter light, replicate 2 = 57276; Renilla control light, replicate 1 = 4.63e5; Renilla control light, replicate 2 = 5.15e5; inactive. CG2906 [DRSC06841] scored firefly reporter light, replicate 1 = 3.28e5; firefly reporter light, replicate 2 = 3.15e5; Renilla control light, replicate 1 = 1.84e6; Renilla control light, replicate 2 = 1.54e6; inactive.

Copied from the entries so far for reference:
Scm [DRSC16853]: firefly reporter light, replicate 1 = 1.92e5; firefly reporter light, replicate 2 = 2.02e5; Renilla control light, replicate 1 = 3.22e6; Renilla control light, replicate 2 = 3.53e6; Call = inactive
Myo95E [DRSC15821]: firefly reporter light, replicate 1 = 1.34e5; firefly reporter light, replicate 2 = 1.08e5; Renilla control light, replicate 1 = 6.09e5; Renilla control light, replicate 2 = 6.10e5; Call = inactive

Additional reagents:
For Cph [DRSC25005] the deposit lists firefly reporter light, replicate 1 = 6.39e5; firefly reporter light, replicate 2 = 8.72e5; Renilla control light, replicate 1 = 8.96e5; Renilla control light, replicate 2 = 1.28e6; inactive. After knock-down of Cph [DRSC37513] the results were firefly reporter light, replicate 1 = 8.66e5; firefly reporter light, replicate 2 = 8.93e5; Renilla control light, replicate 1 = 2.13e6; Renilla control light, replicate 2 = 1.46e6; inactive. Depletion of Ttc26 [DRSC15591] came out at: firefly reporter light, replicate 1 = 4.62e5; firefly reporter light, replicate 2 = 5.12e5; Renilla control light, replicate 1 = 2.71e6; Renilla control light, replicate 2 = 3.52e6; inactive. Ttc26 [DRSC27237] gave firefly reporter light, replicate 1 = 2.22e5; firefly reporter light, replicate 2 = 2.15e5; Renilla control light, replicate 1 = 5.45e5; Renilla control light, replicate 2 = 5.63e5; inactive. After knock-down of Sema2b [DRSC05609], the screen gave firefly reporter light, replicate 1 = 1.31e5; firefly reporter light, replicate 2 = 2.52e5; Renilla control light, replicate 1 = 1.82e5; Renilla control light, replicate 2 = 3.05e5; inactive. After knock-down of Sema2b [DRSC06867] the results were firefly reporter light, replicate 1 = 1.23e5; firefly reporter light, replicate 2 = 1.78e5; Renilla control light, replicate 1 = 2.84e6; Renilla control light, replicate 2 = 2.84e6; inactive.

Silencing of Sema2b [DRSC24672] came out at: firefly reporter light, replicate 1 = 8.56e5; firefly reporter light, replicate 2 = 6.74e5; Renilla control light, replicate 1 = 7.56e5; Renilla control light, replicate 2 = 9.51e5; inactive. Silencing of CG15431 [DRSC00446] came out at: firefly reporter light, replicate 1 = 1.06e5; firefly reporter light, replicate 2 = 84198; Renilla control light, replicate 1 = 7.01e5; Renilla control light, replicate 2 = 5.96e5; inactive. CG15431 [DRSC29532] gave firefly reporter light, replicate 1 = 2.28e5; firefly reporter light, replicate 2 = 2.98e5; Renilla control light, replicate 1 = 7.03e5; Renilla control light, replicate 2 = 7.03e5; inactive.
